# According to PubChem BioAssay AID2685 (National Center for Advancing Translational Sciences (NCATS), 2010):
# The list shows a part of the results. These are further read-outs of the screen, such as a control signal, another cell line or another target. No call is given for them. Most of these compounds were active or inconclusive in the main read-out, so they are no random draw. Words in brackets tell the shape of the fitted curve; partial curves, single points and poor fits give uncertain potencies.
# Experiment: qHTS Assay for Lipid Storage Modulators in Drosophila S3 Cells;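 for cell number change: cells counted by Cell Tracker Red CMTPX staining in the red channel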
# Settings: BODIPY lipid droplet fluorescence, 18-24 h; for cell number change: measured here: cell count max response, cells fed with added oleic acid
# Procedure, shortened: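 Laser-scanning cytometry quantifies lipid droplet accumulation (500–530 nm total intensity; droplet/cell object ratio) in oleic acid-fed (400 uM added) Drosophila S3 cells treated with a concentration series. 20 uM Triacsin C defined 100% inhibition.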
# [1] = measured here: lipid fluorescence (Fed channel) AC50, cells fed with added oleic acid
# [2] = measured here: cell number channel AC50, cells fed with added oleic acid
smiles,measurement,setting,value
NC(=O)c1c(NC(=O)C(=O)NCCCN2CCOCC2)sc2c1CCCC2,cell number change,,8.96%
CCOC(=O)c1cccc(NC(=O)CCS(=O)(=O)c2cccs2)c1,cell number change,,-4.2%
same,AC50,[1],"0.731 µM [rising, partial curve, poor fit]"
Cc1ccc(C(C)C)c(OCC(=O)NC2CCN(C)CC2)c1,cell number change,,5.5%
same,AC50,[2],"0.651 µM [falling, single point]"
CCOC(=O)COc1ccc(S(=O)(=O)NCc2cccnc2)cc1,cell number change,,-5.47%
same,AC50,[1],"25.9 µM [falling, single point]"
CN1C(=O)C2(Nc3ccccc3-c3nc4ccccc4n32)c2ccccc21 (centres undefined),cell number change,,-23.7%
same,AC50,[1],"29.1 µM [falling, single point]"
COc1ccc(N(CC(=O)NCc2ccco2)S(=O)(=O)c2c(C)nn(C)c2C)cc1,cell number change,,6.63%
CCCc1cc(=O)oc2cc(C)cc(OCC(=O)N[C@@H](CSCc3ccccc3)C(=O)O)c12,cell number change,,-5.29%
same,AC50,[1],"6.51 µM [rising, single point]"
CC(OC(=O)C1=Cc2ccccc2OC1)C(=O)NC1CCCC1 (centres undefined),AC50,[1],"0.326 µM [rising, single point]"
CC(NC(=O)C1CCCN(S(=O)(=O)c2ccc(-n3cnnn3)cc2)C1)c1ccc(F)cc1 (centres undefined),cell number change,,48.7%
same,AC50,[2],"23.1 µM [rising, single point]"
same,AC50,[1],"6.51 µM [rising, partial curve]"
COc1ccc(N2CCN(C(=O)c3ccccc3NS(=O)(=O)c3ccccc3)CC2)cc1,cell number change,,13.6%
same,AC50,[1],"6.51 µM [rising, single point]"
O=C(Nc1ccccc1Cl)c1ccccc1Cc1ccccc1,cell number change,,-0.497%
same,AC50,[1],"0.231 µM [falling, full curve, poor fit]"
COC(=O)c1ccc(NC(=O)c2cc(-c3ccncc3)nc3ccccc23)cc1,cell number change,,14.4%
same,AC50,[1],"0.58 µM [rising, partial curve, poor fit]"
Cc1ccc([N+](=O)[O-])cc1-c1ccc(/C=C(\C#N)c2[nH]nc(N)c2C#N)o1,cell number change,,-74.5%
same,AC50,[2],"29.1 µM [falling, single point]"
same,AC50,[1],"0.326 µM [rising, full curve, poor fit]"
CCOC(=O)C1CCN(C(=O)c2cc3c(=O)n4ccccc4nc3n2C)CC1,cell number change,,142%
same,AC50,[2],"29.1 µM [rising, single point]"
same,AC50,[1],"29.1 µM [rising, single point]"
Oc1cccc(NC(=S)Nc2ccccc2)c1,cell number change,,3.57%
same,AC50,[1],"2.91 µM [rising, partial curve]"
O=C(NCc1cccs1)C1CCC(CNS(=O)(=O)c2ccccc2)CC1 (centres undefined),cell number change,,11.7%
CCOc1cc(C2NC(=O)N(C)C(C)=C2C(=O)OC)cc(Br)c1O (centres undefined),cell number change,,159%
same,AC50,[2],"23.1 µM [rising, single point]"
Cc1cc(S(=O)(=O)/N=C(\N)c2ccc(C(N)=O)cc2)cc(C)c1F,cell number change,,17%
Cc1ccccc1C(=O)N1CCc2cc(-c3csc(NC(=O)CN4CCCC4)n3)ccc21,cell number change,,-7.69%
C/C(=N\NC(=O)c1ccc(O)cc1)c1ccc2c(c1)Nc1ccccc1S2,AC50,[1],"0.651 µM [rising, full curve, poor fit]"
CC(O)[C@H]1CC[C@H]2[C@@H]3CC[C@H]4C[C@@H](O)CC[C@]4(C)[C@H]3/C(=N/O)C[C@]12C (some centres undefined),cell number change,,-40.3%
same,AC50,[2],"20.6 µM [falling, single point]"
same,AC50,[1],"29.1 µM [falling, partial curve, poor fit]"
O=C(Nc1c(-c2ccccc2)nc2ccccn12)c1cccs1,cell number change,,13.7%
same,AC50,[1],"14.6 µM [rising, partial curve, poor fit]"
O=C(Nc1ccc(-c2nc3ccccc3[nH]2)cc1)C1CCCO1 (centres undefined),cell number change,,-12.5%
O=C(CCCOc1ccc(Cl)cc1Cl)N1CCc2ccccc2C1,cell number change,,-28.8%
same,AC50,[1],"23.1 µM [falling, single point]"
COc1ccc(/C=C2\SC(=O)N=C2N)cc1OC,cell number change,,10.4%
same,AC50,[1],"23.1 µM [rising, partial curve, poor fit]"
CCNc1nc(C(=O)O)nc(N2CCOCC2)n1,cell number change,,-21.9%
same,AC50,[1],"8.2 µM [falling, partial curve]"
COc1ccc2c(-c3ccccc3)cc3nnnn3c2c1,cell number change,,2.34%
same,AC50,[1],"0.259 µM [rising, full curve, poor fit]"
c1ccc(-c2oc3ncnc(NCCN4CCOCC4)c3c2-c2ccccc2)cc1,cell number change,,-33.6%
same,AC50,[2],"18.4 µM [falling, single point]"
Cc1cccc(NC(=O)Cn2cc(C=O)c3ccccc32)c1,cell number change,,330%
Cc1ccccc1OCC(=O)N1CCCCCCC1,cell number change,,-1.66%
same,AC50,[1],"4.61 µM [rising, single point]"
CCN1/C(=C/C(=O)c2ccco2)Sc2ccccc21,cell number change,,-35.2%
same,AC50,[2],"1.03 µM [falling, full curve]"
same,AC50,[1],"2.31 µM [falling, partial curve]"
O=C(NCc1ccccc1)C1CCC(=O)N(CCCN2CCCC2=O)C1 (centres undefined),cell number change,,9.79%
same,AC50,[1],"3.66 µM [falling, partial curve]"
CCCNC(=O)c1ccc(N2CCC3(CC2)CC(c2ccccc2)=NO3)c(NC(=O)c2ccco2)c1,AC50,[1],"4.61 µM [falling, partial curve]"
COC(=O)C1CCN(C(=O)c2ccc3oc(Cc4ccc(Cl)cc4)nc3c2)CC1,cell number change,,30.8%
same,AC50,[2],"0.58 µM [rising, full curve, poor fit]"
O=C(COC(=O)Cc1c(Cl)cccc1Cl)NCCC1=CCCCC1,cell number change,,-7.73%
same,AC50,[1],"0.58 µM [falling, full curve]"
Cc1ccn2c(C(=O)NN=C3CCCCCCC3)c(C)nc2c1,cell number change,,32.7%
same,AC50,[2],"25.9 µM [rising, partial curve, poor fit]"
same,AC50,[1],"10.3 µM [rising, partial curve]"
c1ccc2[nH]c(SCc3ccc(-c4nnco4)cc3)nc2c1,cell number change,,-28.2%
Cc1ccc(C(=O)N/N=C\c2cccnc2)s1,cell number change,,16.5%
same,AC50,[2],"0.164 µM [rising, full curve, poor fit]"
same,AC50,[1],"1.84 µM [rising, partial curve]"
O=C(NCc1ccc(F)cc1)c1cccc(NC2=NC3CS(=O)(=O)CC3S2)c1 (centres undefined),cell number change,,11.8%
same,AC50,[1],"11.6 µM [falling, single point]"

# 4 neighbouring entries out of the list so far:
smiles,measurement,setting,value
c1ccc2[nH]c(SCc3ccc(-c4nnco4)cc3)nc2c1,cell number change,,-28.2%
Cc1ccc(C(=O)N/N=C\c2cccnc2)s1,cell number change,,16.5%
same,AC50,[2],"0.164 µM [rising, full curve, poor fit]"
same,AC50,[1],"1.84 µM [rising, partial curve]"
